From PubChem BioAssay AID1347076 (National Center for Advancing Translational Sciences (NCATS), 2019)
The whole screen tested about 400,000 compounds, of which about 13,000 (3.2%) were called active. Inconclusive means that the source gave no clear call. Such entries were picked first, then a sample of the others. The call rests on the fitted dose curve; in most records, active means well fitted cell-killing curve with a large enough effect; inconclusive means small, poorly fitted or top-dose-only effect, or effect the other way; inactive means flat fitted curve, though single readings scatter. Where the call is inconclusive, the potency comes from a doubtful curve fit.

assay: qHTS assay for MDR1-selective chemotherapeutics: Primary screen using the drug-selected MDR subline cells KB-V1; settings: KB-V1 MDR cells viability, CellTiter-Glo, 72 h; series mostly up to 46.1 µM; further: nearly all actives have a fitted effect of over 60% in size
In short: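 In this primary screen, KB-V1 cells overexpressing P-gp are incubated with library compounds (lowest to highest concentration) for 72 h at 37 degrees C before a luminescent ATP viability read.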
Potency means the concentration at half of the fitted maximal effect.

Row | Compound | Potency
1 | COC(=O)c1ccc(NC(=O)c2sc3nc(-c4ccccc4)cn3c2C)cc1 | inconclusive: 1.16 µM [cytotoxic, partial curve, poor fit]
2 | Cc1oc(-c2cc(F)ccc2F)nc1CN1CCN(c2ncnc3ccccc23)CC1 | inconclusive: 8.2 µM [cytotoxic, partial curve]
3 | COc1ccccc1C(=O)Nn1c(C)nc2ccccc2c1=O | inactive
4 | CN(C(=O)c1ccc(NC(=O)Cc2ccc(NC(=O)C3CCCN(C(=O)CCc4ccccc4)C3)cc2)cc1)C1CC1 (configuration not stated) | inactive
5 | CC1CCN(C(=O)COC(=O)c2cccc(S(=O)(=O)N(C)c3ccccc3)c2)CC1 | active: 20.6 µM
6 | CN(C)CCNC(=O)c1cccc(-c2cnc3c(NC=O)cc(-c4ccccc4F)cn23)c1 | inactive
7 | CC(=O)N1c2ccc(S(=O)(=O)N3CCCCCC3)cc2CC1C(=O)NCc1ccc(Cl)cc1 (configuration not stated) | inactive
8 | COc1ccc(Nc2nc(OC)nc(N3CCN(c4ccc(OC)cc4)CC3)n2)cc1 | inconclusive: 1.84 µM [cytotoxic, full curve, poor fit]
9 | O=C(CSc1nc(Nc2ccccc2)nc(N2CCOCC2)n1)N1CCCC1 | inconclusive: 16.4 µM [cytotoxic, partial curve]
10 | C/C(=N\N=C(N)N)c1ccc(Cl)cc1 | inconclusive: 18.4 µM [cytotoxic, single point]
11 | COc1ccc(N2C(=O)c3ccccc3NC2c2ccc(OC)c(COc3ccc(NC(C)=O)cc3)c2)cc1 (configuration not stated) | inactive
12 | Cc1ccccc1C(=O)N1CCC(C(=O)NCCc2ccc(S(N)(=O)=O)cc2)CC1 | inactive
13 | CN(C)CCCNc1nc2cc(-c3cnn(C)c3)sc2c(=O)n1C | inactive
14 | COc1ccc(C(=O)C[C@@H]2OC[C@H](Cc3ccccc3)N2S(=O)(=O)c2ccc(C)cc2)cc1OC | inconclusive: 4.11 µM [cytotoxic, full curve]
15 | N#Cc1cccc(NS(=O)(=O)c2ccc3c(c2)CCC(=O)N3)c1 | inconclusive: 29.1 µM [rising, single point]
16 | CCCOc1ccc(-c2nonc2NC(=O)c2oc3ccc(C)cc3c2C)cc1OCCC | inactive
17 | N#C/C(=C(/O)c1cc2ccccc2o1)c1nc2ccccc2s1 | inconclusive: 20.6 µM [cytotoxic, single point]
18 | Cn1c(-c2ccccc2)c(/C=N/NC(=O)c2ccc(O)cc2)c2ccccc21 | inconclusive: 16.4 µM [cytotoxic, single point]
19 | CCSc1nnc(NC(=O)[C@@H](NC(=O)c2cccc(C)c2)C(C)C)s1 | active: 8.2 µM
20 | CC1CCCC(C)N1C(=O)COC(=O)Cc1ccc(Cl)cc1 (configuration not stated) | inactive
21 | Oc1ccc(Cl)cc1C1=Nc2ccccc2N=C(c2cccc(Br)c2)C1 | inactive

Row | Compound | Potency
22 | CCCCc1nc(N2CCN(C(=O)c3ccco3)CC2)c(C#N)c2c1CCCC2 | inconclusive: 20.6 µM [cytotoxic, single point]
23 | CSC1=C(C#N)C(c2ccc(Cl)cc2)C2=C(CC(C)(C)CC2=O)N1 (configuration not stated) | active: 20.6 µM
24 | Cc1ccc(C)c2c1NC(C(=O)O)C1CC=CC21 (configuration not stated) | inconclusive: 29.1 µM [rising, single point]
25 | CCCNC(=O)c1cccc(S(=O)(=O)N2CC3(C)CC2CC(C)(C)C3)c1 (configuration not stated) | active: 2.06 µM
26 | CC(=O)c1c(C(C)=O)c(C)n(-c2ccc(C)c(NC(=O)c3ccccc3Cl)c2)c1C | active: 3.66 µM
27 | Cc1ccc2cc(CN(Cc3ccco3)C(=O)NC3CCCCC3)c(=O)[nH]c2c1C | inconclusive: 25.9 µM [cytotoxic, partial curve, poor fit]
28 | CC(C)(C)c1ccccc1NC(=O)NC1CCN(Cc2c(F)cccc2Cl)CC1 | inconclusive: 20.6 µM [cytotoxic, single point]
29 | COc1cc(/C=N/NC(N)=O)c(Br)cc1OCC(=O)Nc1ccccc1C | inactive
30 | COc1cc(OC)c(NC(=O)c2ccccc2F)cc1Cl | inconclusive: 29.1 µM [rising, single point]
31 | CC(C)[C@H](NC(=O)OCc1ccccc1)C(=O)OCC(=O)N1CCN(c2ccccc2)CC1 | inconclusive: 23.1 µM [cytotoxic, single point]
32 | CCN1C(=O)[C@H]2[C@@H](c3ccc(-c4cc(C(C)=O)cs4)cc3)N3CCC[C@@]3(C(=O)OC)[C@H]2C1=O | inconclusive: 16.4 µM [cytotoxic, single point]
33 | CCCCCCCCN1C(=O)[C@H](CC(=O)NCCc2ccccc2OC)C[C@@]2(C(=O)OC)CC(C)(C)CC=C12 | inconclusive: 16.4 µM [cytotoxic, partial curve]
34 | CCCCN(C)C(=O)c1sc(=O)n(Cc2cc(Cl)ccc2OC)c1C | inconclusive: 8.2 µM [cytotoxic, partial curve]
35 | CC(=O)N1Cc2cc(C(=O)NCC(F)(F)F)nc(-c3cccc(-c4cccnc4)c3)c2[C@H]1CCO | inactive
36 | O=C(NCc1nc2ccccc2[nH]1)C1=C[C@H](c2ccc3c(c2)OCO3)C[C@H](OCc2ccc(CO)cc2)O1 | inconclusive: 29.1 µM [cytotoxic, single point]
37 | CC(C)(C)OC(=O)C[C@H]1C/C=C\C[C@@H](CC(=O)N[C@@H](CO)Cc2ccccc2)C(=O)NC[C@H](c2ccccc2)OC1=O | inactive
38 | COc1ccc(-c2cc(C(=O)NCc3ccc(F)cc3)c3c(-c4ccc(F)cc4)[nH]nc3n2)cc1OC | inconclusive: 18.4 µM [cytotoxic, single point]
39 | COc1ccc(/C=N/NC(=O)c2ccccc2O)cc1Cn1nnc2ccccc21 | inconclusive: 18.4 µM [cytotoxic, partial curve]
40 | O=c1c2ccc(Cl)cc2[nH]c(=S)n1CCCN1CCOCC1 | inconclusive: 29.1 µM [cytotoxic, partial curve, poor fit]
41 | O=C(C1=C[C@H](c2ccc3c(c2)OCO3)C[C@H](OCCCCO)O1)N1CCN(Cc2ccccc2)CC1 | inconclusive: 9.2 µM [cytotoxic, partial curve, poor fit]
42 | COc1cccc(Cn2cccc(NC(=O)Nc3ccc(C#N)cc3)c2=O)c1 | inconclusive: 18.4 µM [cytotoxic, single point]

Records 24–27, quoted:
Row | Compound | Potency
24 | Cc1ccc(C)c2c1NC(C(=O)O)C1CC=CC21 (configuration not stated) | inconclusive: 29.1 µM [rising, single point]
25 | CCCNC(=O)c1cccc(S(=O)(=O)N2CC3(C)CC2CC(C)(C)C3)c1 (configuration not stated) | active: 2.06 µM
26 | CC(=O)c1c(C(C)=O)c(C)n(-c2ccc(C)c(NC(=O)c3ccccc3Cl)c2)c1C | active: 3.66 µM
27 | Cc1ccc2cc(CN(Cc3ccco3)C(=O)NC3CCCCC3)c(=O)[nH]c2c1C | inconclusive: 25.9 µM [cytotoxic, partial curve, poor fit]
